# Measurements: the supplement of paper PMC4604168 (melanoma cell lines)
# This is one part of the list. Repeats are few or missing, and single values can be far off.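 The apoptosis fraction was the count of cleaved-PARP antibody-stained nuclei relative to all DNA-stained nuclei, imaged in 1,536-well plates. Screening doses were set so most cells survived, and baseline and induced cleaved-PARP levels vary greatly across cell lines.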
# System: COLO792
# Test: cleaved PARP positive nuclei fraction relative to DMSO control; melanoma cells; higher = more apoptosis
# Conditions: library dose: low library concentration; 72 h
row,SMILES,cleaved PARP positive nuclei fraction [%]
1,"CCc1ccc(CCOc2ccc(CC3SC(=O)NC3=O)cc2)nc1 (stereo unspecified) [pioglitazone] + CCCCCCCCCCCC1=C(O)C(=O)C=C(O)C1=O [Embelin] (first compound 2 µM, partner dose 1.2 µM)",61.2
2,"CN(C)S(=O)(=O)c1ccc2c(c1)/C(=C/c1cc3c([nH]1)CCCC3)C(=O)N2 + c1cc(-c2cnn3cc(-c4ccc(OCCN5CCCCC5)cc4)cnc23)ccn1 [Dorsomorphin] (first compound 0.4 µM, partner dose 0.4 µM)",50.7
3,"O=C(Nc1ccccc1)c1cc([N+](=O)[O-])ccc1Cl + O=c1cc(-c2cccc3c2Sc2ccccc2S3)oc(N2CCOCC2)c1 [KU55933] (first compound 2 µM, partner dose 1 µM)",130
4,"COc1cc2ncnc(Nc3ccc(Oc4ccccc4)cc3)c2cc1OC + O=C(O)C(=O)Nc1sc2c(c1C(=O)O)CCNC2 [TCS401] (first compound 2 µM, partner dose 1.66667 µM)",87.4
5,"COc1ccc(-c2ccc3c(N4CCOCC4)nc(N4C[C@@H](C)O[C@@H](C)C4)nc3n2)cc1CO + Oc1nc(-c2ccc(C(F)(F)F)cc2)nc2c1CSCC2 [XAV939] (first compound 0.02 µM, partner dose 2 µM)",170
6,"CN(NC(=O)CC(=O)NN(C)C(=S)c1ccccc1)C(=S)c1ccccc1 + CCc1ccc(CCOc2ccc(CC3SC(=O)NC3=O)cc2)nc1 [pioglitazone] (first compound 0.006 µM, partner dose 2 µM)",145
7,"CCc1ccc(CCOc2ccc(CC3SC(=O)NC3=O)cc2)nc1 (stereo unspecified) [pioglitazone] + Cc1cc([N+](=O)[O-])ccc1NS(=O)(=O)c1cc(Cl)ccc1Cl [FH535] (first compound 2 µM, partner dose 1 µM)",77.1
8,"CCN(CC)CCCCNc1ncc2cc(-c3cc(OC)cc(OC)c3)c(NC(=O)NC(C)(C)C)nc2n1 + O=c1cc(-c2cccc3c2Sc2ccccc2S3)oc(N2CCOCC2)c1 [KU55933] (first compound 0.1 µM, partner dose 1 µM)",136
9,"COc1ccc(COc2ccc(Cc3cnc(N)nc3N)cc2OC)cc1 + O=C1NC(=O)/C(=C/c2ccc(-c3ccc(F)cc3O)o2)S1 [AS252424] (first compound 1 µM, partner dose 1 µM)",93.7
10,"Oc1cc(-c2nc(-c3ccccc3)[nH]c2-c2ccncc2)ccc1Cl + Cn1cc(/C=C2\C(=O)Nc3cccnc32)c2ccccc21 [GW441756] (first compound 0.2 µM, partner dose 0.4 µM)",129
11,"NCC(=O)Nc1ccc(-n2nc(C(F)(F)F)cc2-c2ccc3c(ccc4ccccc43)c2)cc1 + Oc1cc(-c2nc(-c3ccccc3)[nH]c2-c2ccncc2)ccc1Cl [L779450] (first compound 1 µM, partner dose 0.2 µM)",16.7
12,"O=S(=O)(c1ccccc1)N(CC(F)(F)F)c1ccc(C(O)(C(F)(F)F)C(F)(F)F)cc1 + CC(C)CCN1c2nc(Nc3cc(F)c(O)c(F)c3)ncc2N(C)C(=O)C1C [BID1870] (first compound 1.4 µM, partner dose 0.2 µM)",77.5
13,"Cn1cc(/C=C2\C(=O)Nc3cccnc32)c2ccccc21 + CC(C)CCN1c2nc(Nc3cc(F)c(O)c(F)c3)ncc2N(C)C(=O)C1C [BID1870] (first compound 0.4 µM, partner dose 0.2 µM)",98.8
14,"O=C1NC(=O)/C(=C/c2ccc(-c3ccc(F)cc3O)o2)S1 + COc1cc(N2CCC(N3CCN(C)CC3)CC2)ccc1Nc1ncc(Cl)c(Nc2ccccc2S(=O)(=O)C(C)C)n1 [NVP-TAE684] (first compound 1 µM, partner dose 0.08 µM)",86
15,"N#Cc1c(O)c2c(-c3ccc(-c4ccccc4O)cc3)csc2[nH]c1=O + CCN(CC)CCCCNc1ncc2cc(-c3cc(OC)cc(OC)c3)c(NC(=O)NC(C)(C)C)nc2n1 [PD173074] (first compound 2 µM, partner dose 0.1 µM)",161
16,"CN(C)S(=O)(=O)c1ccc2c(c1)/C(=C/c1cc3c([nH]1)CCCC3)C(=O)N2 + COc1ccc2c(c1)CCC1C2CCC2(C)C(NCCCCCCN3C(=O)C=CC3=O)CCC12 [U73122] (first compound 0.4 µM, partner dose 0.4 µM)",77.8

# Reprinted from above (2 entries):
row,SMILES,cleaved PARP positive nuclei fraction [%]
13,"Cn1cc(/C=C2\C(=O)Nc3cccnc32)c2ccccc21 + CC(C)CCN1c2nc(Nc3cc(F)c(O)c(F)c3)ncc2N(C)C(=O)C1C [BID1870] (first compound 0.4 µM, partner dose 0.2 µM)",98.8
14,"O=C1NC(=O)/C(=C/c2ccc(-c3ccc(F)cc3O)o2)S1 + COc1cc(N2CCC(N3CCN(C)CC3)CC2)ccc1Nc1ncc(Cl)c(Nc2ccccc2S(=O)(=O)C(C)C)n1 [NVP-TAE684] (first compound 1 µM, partner dose 0.08 µM)",86
